For the series the following is noted: a range is the spread between reports.

Molecules are shown by their SMILES.

Broadly, the melting point is the temperature, or range, at which the solid turns liquid. For `O=C(c1ccccc1)c1ccccc1`, the melting point is 47.9 to 49 °C.

As for `CCCCCCCCCO`, the melting point is -7 to -4 °C.
